The other results are listed elsewhere or left out. Further columns of the screen follow, without active or inactive calls. Most of these compounds were active or inconclusive in the main read-out, so they are no random draw. Words in brackets tell the shape of the fitted curve; partial curves, single points and poor fits give uncertain potencies.
Assay: qHTS Assay for Lipid Storage Modulators in Drosophila S3 Cells;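 on cell number change: cells counted by Cell Tracker Red CMTPX staining in the red channel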
Settings: BODIPY lipid droplet fluorescence, 18-24 h; for cell number change: measured here: cell count max response, cells fed with added oleic acid
In short: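 Laser-scanning cytometry quantifies lipid droplet accumulation (500–530 nm total intensity; droplet/cell object ratio) in oleic acid-fed (400 uM added) Drosophila S3 cells treated with a concentration series. 20 uM Triacsin C defined 100% inhibition.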

[1] = measured here: cell number channel AC50, cells fed with added oleic acid
[2] = measured here: lipid fluorescence (Fed channel) AC50, cells fed with added oleic acid

SMILES	cell number change	AC50 [1]	AC50 [2]
COCCn1c(=O)[nH]c2cc(C(=O)NCc3ccccc3)ccc2c1=O	0.772%	6.51 µM [falling, single point]	6.51 µM [falling, single point]
Cc1cccc(NC(=O)CSc2nnc([C@@H]3CCCN3C(=O)OC(C)(C)C)o2)c1C	1.14%	–	1.46 µM [rising, partial curve, poor fit]
O=C(COc1ccc(S(=O)(=O)N2CCCC2)cc1)N1CCN(c2ccccc2F)CC1	–	–	29.1 µM [falling, single point]
Cc1cccc(-c2nnc3sc(-c4ccccc4)nn23)c1	-3.42%	–	–
COc1cc(NC(=O)c2ccco2)ccc1NC(=O)c1ccccc1Cl	7.28%	–	–
COc1ccc(N(Cc2cc(=O)[nH]c3ccccc23)C(=O)c2ccco2)cc1	44.4%	20.6 µM [rising, single point]	–
CN1CCN(C(=O)c2cc3nc(-c4ccccc4)cc(C(F)(F)F)n3n2)CC1	–	0.461 µM [falling, partial curve, poor fit]	–
N#Cc1c(-c2ccccc2)oc(=O)c2ccccc12	11.7%	–	–
COc1ccc2cc(C(=O)N3CCC(Cc4ccccc4)CC3)[nH]c2c1	–	0.82 µM [rising, full curve, poor fit]	6.51 µM [rising, single point]
CC(C)OCCCNC(=O)c1cc(-c2cccnc2)nc2ccccc12	-7.8%	2.91 µM [rising, single point]	6.51 µM [rising, single point]
COc1ccc(NC(=O)CN2C(=O)NC(C)(c3ccccc3)C2=O)cc1Cl (stereo unspecified)	-5.41%	–	0.164 µM [rising, full curve]
COc1cccc(/C=N/Nc2snc(SC)c2C#N)c1	-19%	–	–
CCOc1cc(CNc2ccc(N3CCCCC3)cc2)cc(Br)c1OCC(=O)NC(C)(C)C	-20.6%	–	6.51 µM [rising, single point]
Cc1onc(-c2ccccc2)c1C(=O)Nc1ncc([N+](=O)[O-])s1	-24.4%	–	0.0731 µM [rising, partial curve, poor fit]
COc1ccc(OC)c(C(c2nnnn2C2CCCC2)N2CCN(c3ccccc3)CC2)c1 (stereo unspecified)	18.9%	–	4.11 µM [rising, full curve]
Cc1oc(-c2ccc(Cl)cc2)nc1CS(=O)CC(=O)NCc1cccs1 (stereo unspecified)	-9.76%	–	6.51 µM [rising, single point]
Cc1cnc(C(=O)Oc2cccc(Cl)c2Cl)cn1	-31.7%	0.231 µM [falling, full curve, poor fit]	–
CCCCN(Cc1ccccc1)S(=O)(=O)c1ccc2[nH]c(=O)oc2c1	-44.7%	–	7.31 µM [falling, partial curve, poor fit]
Cc1cccc(NC(=O)c2ccccc2OCC(=O)c2ccccc2)c1	38.9%	2.59 µM [rising, partial curve]	5.17 µM [rising, partial curve]

SMILES	cell number change	AC50 [1]	AC50 [2]
COc1ccc(OCCCC(=O)Nc2cccc(S(=O)(=O)N3CCCCCC3)c2)cc1	-21.7%	0.651 µM [falling, full curve, poor fit]	–
Cc1noc(C)c1COc1cccc(C(=O)Nc2ccccc2N2CCOCC2)c1	8.91%	–	3.26 µM [rising, single point]
CCOc1ccc(N(C)S(=O)(=O)c2cc(-c3cc(C)no3)ccc2OC)cc1	-31.8%	16.4 µM [falling, partial curve, poor fit]	6.51 µM [falling, partial curve]
CN(C)C1=NC[C@H](Cc2ccccc2)N1CC1CCC(C(C)(C)C)CC1 (stereo partly specified)	-8.68%	–	29.1 µM [falling, single point]
CNC(C)C(=O)NC(C(=O)N1CCCC1C(=O)Nc1ccc2ncccc2c1)C(C)C (stereo unspecified)	16%	3.66 µM [falling, single point]	0.082 µM [rising, full curve]
Nc1nonc1-n1nnc(C(=O)N/N=C/c2c[nH]c3ccccc23)c1-c1ccccc1	16.8%	–	18.4 µM [rising, single point]
CC(Sc1nnnn1-c1ccccc1)C(=O)Nc1ccc(Cl)cn1 (stereo unspecified)	–	–	5.17 µM [falling, partial curve]
NC(=O)Cc1ccc(C(=O)c2ccccc2F)s1	3.62%	3.26 µM [falling, partial curve]	2.59 µM [falling, partial curve]
CC1CCCCC1NC(=O)Cn1[nH]c(=O)c2ccccc2c1=O (stereo unspecified)	-10.3%	–	–
COc1ccc(S(=O)(=O)N(Cc2ccccc2)c2ccccc2C(=O)N2CCOCC2)cc1	-8.56%	–	29.1 µM [rising, partial curve, poor fit]
Cc1ccc(NC(=O)[C@H](C)NC(=O)C2CCN(C(=O)[C@@H](NC(=O)OC(C)(C)C)C(C)C)CC2)cc1	0.826%	–	2.06 µM [rising, partial curve]
COC12NC(=O)N(C)C1(OC)C(=O)N(C)C(=O)N2C (stereo unspecified)	-24.4%	0.103 µM [falling, full curve, poor fit]	0.013 µM [falling, full curve, poor fit]
Cc1ccc(C(NC(=O)N2CCCC2)C(Cl)(Cl)Cl)cc1F (stereo unspecified)	–	–	29.1 µM [rising, single point]
NC(=O)c1cc2ccccc2oc1=NCc1ccccc1	–	–	3.66 µM [rising, single point]
COc1ccc(CCC(=O)NCC23CC4CC(CC(C4)C2)C3)cc1	-31.9%	32.6 µM [falling, single point]	6.51 µM [falling, single point]
C=CCOc1ccc(/C=C/C(=O)OCC(=O)N2CCCc3ccccc32)cc1	56.2%	6.51 µM [rising, full curve]	–
Cc1ccc(SCC(=O)Nc2ccccc2C(=O)O)cc1	-0.54%	–	–
COCc1c(C(=O)N2CCN(S(=O)(=O)c3ccccc3Cl)CC2)oc2ccccc12	8.41%	–	4.11 µM [rising, partial curve, poor fit]

2 neighbouring entries from above:
SMILES	cell number change	AC50 [1]	AC50 [2]
NC(=O)c1cc2ccccc2oc1=NCc1ccccc1	–	–	3.66 µM [rising, single point]
COc1ccc(CCC(=O)NCC23CC4CC(CC(C4)C2)C3)cc1	-31.9%	32.6 µM [falling, single point]	6.51 µM [falling, single point]

From PubChem BioAssay AID2685 (National Center for Advancing Translational Sciences (NCATS), 2010)
